# Test results taken from US9598389B2, “Dihydrobenzofuran derivatives as insecticidal compounds” (SYNGENTA PARTICIPATIONS AG, priority 2013, dated 2017).
# Some results were stated once for a whole list of compounds, not compound by compound. At least one compound was matched to its structure with a doubt left.
# How the values were obtained:
# Assay type in all cases: in vivo
# [1] = tested on: Heliothis virescens (Tobacco Budworm); test: Heliothis virescens egg/larval test on artificial diet; conditions: application rate of 200 ppm; eggs 0-24 h old; 5 days after infestation
# Procedure: Heliothis virescens (Tobacco Budworm):
# Eggs (0-24 h old) were placed in 24-well microtiter plates on artificial diet and treated with aqueous test solutions prepared from 10,000 ppm DMSO stock solutions by pipetting. The samples were assessed for egg and larval mortality 5 days after infestation.
# [2] = tested on: Thrips tabaci (Onion Thrips); test: Thrips tabaci sunflower leaf disc spray test; conditions: application rate of 200 ppm; population of mixed ages; 6 days after infestation
# Procedure: Thrips tabaci (Onion Thrips):
# (§1) Sunflower leaf discs were placed on agar in 24-well microtiter plates and sprayed with aqueous test solutions prepared from 10,000 ppm DMSO stock solutions. After drying the leaf discs were infested with a thrips population of mixed ages. The samples were assessed for mortality 6 days after infestation.
# [3] = tested on: Tetranychus urticae (Two-Spotted Spider Mite); test: Tetranychus urticae bean leaf disc spray test; conditions: application rate of 200 ppm; 8 days after infestation
# Procedure: Tetranychus urticae (Two-Spotted Spider Mite):
# as §1, with “Bean” for “Sunflower”, “discs” for “discs were placed”, “were” for “and”, “mite” for “thrips”, “on mixed population (mobile stages) 8” for “6”
# [4] = tested on: Spodoptera Littoralis (Egyptian Cotton Leaf Worm); test: Spodoptera littoralis cotton leaf disc spray test; conditions: application rate of 200 ppm; L1 larvae; 3 days after infestation
# [5] = tested on: Diabrotica balteata (Corn Root Worm); test: Diabrotica balteata L2 larvae test on artificial diet; conditions: application rate of 200 ppm, 5 days after infestation
# Procedure: Diabrotica balteata (Corn Root Worm):
# (§2) 24-well microtiter plates with artificial diet were treated with aqueous test solutions prepared from 10,000 ppm DMSO stock solutions by pipetting. After drying, the plates were infested with L2 larvae (6 to 10 per well). The samples were assessed for mortality and growth inhibition in comparison to untreated samples 5 days after infestation.
# [6] = tested on: Plutella xylostella (Diamond Back Moth); test: Plutella xylostella L2 larvae test on artificial diet; conditions: application rate of 200 ppm, 5 days after infestation
# Procedure: Plutella xylostella (Diamond Back Moth):
# as §2, with “larvae (10” for “larvae (6”, “to 15” for “to 10”
SMILES,egg or larval mortality [1] [%],mortality [2] [%],mortality on mixed population (mobile stages) [3],"control (at least one of mortality, anti-feedant effect, growth inhibition) [4]",effect in at least one of the two categories (mortality or growth inhibition) [5] [%],effect in at least one of the two categories (mortality or growth inhibition) [6] [%]
CC(=O)Nc1cc(-c2ccc3c(c2)CC(c2cc(C(F)(F)F)cc(C(F)(F)F)c2)(C(F)(F)F)O3)ccc1C#N (stereo not drawn) [Compound 222],≥ 80,≥ 80,at least 80%,at least 80%,≥ 80,≥ 80
CCC(=O)Nc1cccc(-c2ccc3c(c2)CC(c2cc(Cl)c(Cl)c(Cl)c2)(C(F)(F)F)O3)c1 (stereo not drawn) [Compound 176],≥ 80,≥ 80,at least 80%,at least 80%,≥ 80,≥ 80
CCC(=O)Nc1cc(-c2ccc3c(c2)CC(c2cc(C(F)(F)F)cc(C(F)(F)F)c2)(C(F)(F)F)O3)ccc1C#N (stereo not drawn) [Compound 218],≥ 80,≥ 80,at least 80%,at least 80%,≥ 80,≥ 80
CC1(C(=O)Nc2cccc(-c3ccc4c(c3)CC(c3cc(Cl)cc(Cl)c3)(C(F)(F)F)O4)c2)CC1 (stereo not drawn) [Compound 158],≥ 80,≥ 80,at least 80%,at least 80%,≥ 80,≥ 80
O=C(CC(F)(F)F)Nc1cccc(-c2ccc3c(c2)CC(c2cc(Cl)cc(Cl)c2)(C(F)(F)F)O3)c1 (stereo not drawn) [Compound 150],≥ 80,≥ 80,at least 80%,at least 80%,≥ 80,≥ 80
CC(=O)Nc1cccc(-c2ccc3c(c2)CC(c2cccc(C(F)(F)F)c2)(C(F)(F)F)O3)c1 (stereo not drawn) [Compound 160],≥ 80,≥ 80,at least 80%,at least 80%,≥ 80,≥ 80
CC1(C(=O)Nc2cccc(-c3ccc4c(c3)CC(c3cccc(C(F)(F)F)c3)(C(F)(F)F)O4)c2)CC1 (stereo not drawn) [Compound 190],≥ 80,≥ 80,at least 80%,at least 80%,≥ 80,≥ 80
CC(C)C(=O)Nc1cc(-c2ccc3c(c2)CC(c2cc(Cl)c(F)c(Cl)c2)(C(F)(F)F)O3)ccc1C#N (stereo not drawn) [Compound 230],≥ 80,≥ 80,at least 80%,at least 80%,≥ 80,≥ 80
